Results: publication doi:10.1101/2021.11.10.468008

Assays:
Test in all cases: cryo-EM structure
[1] = target: T1, Nup85 (X. laevis (endogenous in oocytes)) (UniProt Q68FJ0)
T1 sequence: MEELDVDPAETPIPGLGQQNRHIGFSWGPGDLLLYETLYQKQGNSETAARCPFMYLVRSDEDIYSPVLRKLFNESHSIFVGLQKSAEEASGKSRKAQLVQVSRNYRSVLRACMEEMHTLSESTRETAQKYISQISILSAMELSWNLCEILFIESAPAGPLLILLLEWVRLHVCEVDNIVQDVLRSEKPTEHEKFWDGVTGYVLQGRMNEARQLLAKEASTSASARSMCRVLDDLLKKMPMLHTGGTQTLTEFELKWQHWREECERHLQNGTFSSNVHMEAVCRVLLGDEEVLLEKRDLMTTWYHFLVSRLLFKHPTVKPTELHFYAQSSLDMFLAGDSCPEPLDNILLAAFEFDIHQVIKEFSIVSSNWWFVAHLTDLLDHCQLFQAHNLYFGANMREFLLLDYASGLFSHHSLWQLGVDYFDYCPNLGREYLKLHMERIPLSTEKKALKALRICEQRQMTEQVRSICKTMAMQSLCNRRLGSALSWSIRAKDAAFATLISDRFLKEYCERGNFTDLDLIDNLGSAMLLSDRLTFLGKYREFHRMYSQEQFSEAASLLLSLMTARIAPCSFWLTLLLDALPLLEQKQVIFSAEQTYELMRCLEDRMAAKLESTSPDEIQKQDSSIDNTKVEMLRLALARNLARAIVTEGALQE

[2] = target: Nup96 (X. laevis (endogenous in oocytes))
[3] = target: Nup107 (X. laevis (endogenous in oocytes))

“Nup107 (X. laevis (endogenous in oocytes))” was tested, and the binding [1] was “binds”.

For “Nup205 (X. laevis (endogenous in oocytes))”, the binding [1] was “binds”.

B1: Nup85 (protein, UniProt Q68FJ0 1-653)
chain: T1 sequence
For B1, the binding [2] was “binds”.

B2: Nup93 (protein, UniProt Q7ZX96 1-820)
chain: MDGEGFGELLQQAEQLAAETEGVTELPHVERNLQEIQQAGERLRSKTMTRTSQESANVKASVLLGSRGLDISHISQRLESLSAATTFEPLEPVKDTDIQGFLKNEKDNALLSAIEESRKRTFVMAEEYHRESMLVEWEQVKQRVLHTLLASGEDALDFTQESETSYISESGAPGRSSLDNVEMAYARQMYMYNEKVVSGHLQPSLVDLCTEAAERLDDKNVSDLWVMVKQMTDVPLIPASDTLKSRCSGQMQMAFVRQALNYLEQSYKNYTLISVFANLQQAQLGGVPGTYNLVRSFLNIRLPTPIPGLQDGEIEGYPVWALIYYCMRCGDLMAAQQVVNRAQHQLGDFKNCFQEYIHNKDRRLSPTTENKLRLHYRRAVRASTDPYKRAVYCIIGRCDVSDNHSEVADKTEDYLWLKLSQVCFEDEANSSPQDRLTLPQFQKQLFEDYGESHFAVNQQPYLYFQVLFLTAQFEAAIAFLFRLERTRCHAVHVALALFELKLLLKSTGQSAQLLSQEPGEPQGVRRLNFIRLLMLYTRKFEPTDPREALQYFYFLRNEKDNQGESMFLRCVSELVIESREFDMLLGKLEKDGSRKPGAIDKFTRDTKTIINKVASVAENKGLFEEAAKLYDLAKNPDKVLELTNKLLSPVVSQISAPQSNRERLKNMALAIAERYKSQGVSAEKSINSTFYLLLDLITFFDEYHAGHIDLSFDVIERLKLVPLSQDSVEERVAAFRNFSDEIRHNLSEILLATMNILFTQYKRLKGSGPTTLGRPQRVQEDKDSVLRSQARALITFAGMIPYRMSGDTNARLVQMEVLMN
With B2 the binding [3] was “binds” and the binding [2] was “binds”.

No constants are given. Whether binding was seen depends on the method and setting. A result given as binding can be weak or reduced; the word gives no strength.
